Results are given in words; binding and its absence hold for the method and conditions named. Some entries that bind do so weakly or less than the wild type. Where a sequence is shown, tags or fusion partners need not be part of it.

Protein sequences, listed by entry. Tags and fused reporters are not part of them. Lines headed by an entry give the natural chain unless they say otherwise; changes in a name come on top.
UniProt P04050: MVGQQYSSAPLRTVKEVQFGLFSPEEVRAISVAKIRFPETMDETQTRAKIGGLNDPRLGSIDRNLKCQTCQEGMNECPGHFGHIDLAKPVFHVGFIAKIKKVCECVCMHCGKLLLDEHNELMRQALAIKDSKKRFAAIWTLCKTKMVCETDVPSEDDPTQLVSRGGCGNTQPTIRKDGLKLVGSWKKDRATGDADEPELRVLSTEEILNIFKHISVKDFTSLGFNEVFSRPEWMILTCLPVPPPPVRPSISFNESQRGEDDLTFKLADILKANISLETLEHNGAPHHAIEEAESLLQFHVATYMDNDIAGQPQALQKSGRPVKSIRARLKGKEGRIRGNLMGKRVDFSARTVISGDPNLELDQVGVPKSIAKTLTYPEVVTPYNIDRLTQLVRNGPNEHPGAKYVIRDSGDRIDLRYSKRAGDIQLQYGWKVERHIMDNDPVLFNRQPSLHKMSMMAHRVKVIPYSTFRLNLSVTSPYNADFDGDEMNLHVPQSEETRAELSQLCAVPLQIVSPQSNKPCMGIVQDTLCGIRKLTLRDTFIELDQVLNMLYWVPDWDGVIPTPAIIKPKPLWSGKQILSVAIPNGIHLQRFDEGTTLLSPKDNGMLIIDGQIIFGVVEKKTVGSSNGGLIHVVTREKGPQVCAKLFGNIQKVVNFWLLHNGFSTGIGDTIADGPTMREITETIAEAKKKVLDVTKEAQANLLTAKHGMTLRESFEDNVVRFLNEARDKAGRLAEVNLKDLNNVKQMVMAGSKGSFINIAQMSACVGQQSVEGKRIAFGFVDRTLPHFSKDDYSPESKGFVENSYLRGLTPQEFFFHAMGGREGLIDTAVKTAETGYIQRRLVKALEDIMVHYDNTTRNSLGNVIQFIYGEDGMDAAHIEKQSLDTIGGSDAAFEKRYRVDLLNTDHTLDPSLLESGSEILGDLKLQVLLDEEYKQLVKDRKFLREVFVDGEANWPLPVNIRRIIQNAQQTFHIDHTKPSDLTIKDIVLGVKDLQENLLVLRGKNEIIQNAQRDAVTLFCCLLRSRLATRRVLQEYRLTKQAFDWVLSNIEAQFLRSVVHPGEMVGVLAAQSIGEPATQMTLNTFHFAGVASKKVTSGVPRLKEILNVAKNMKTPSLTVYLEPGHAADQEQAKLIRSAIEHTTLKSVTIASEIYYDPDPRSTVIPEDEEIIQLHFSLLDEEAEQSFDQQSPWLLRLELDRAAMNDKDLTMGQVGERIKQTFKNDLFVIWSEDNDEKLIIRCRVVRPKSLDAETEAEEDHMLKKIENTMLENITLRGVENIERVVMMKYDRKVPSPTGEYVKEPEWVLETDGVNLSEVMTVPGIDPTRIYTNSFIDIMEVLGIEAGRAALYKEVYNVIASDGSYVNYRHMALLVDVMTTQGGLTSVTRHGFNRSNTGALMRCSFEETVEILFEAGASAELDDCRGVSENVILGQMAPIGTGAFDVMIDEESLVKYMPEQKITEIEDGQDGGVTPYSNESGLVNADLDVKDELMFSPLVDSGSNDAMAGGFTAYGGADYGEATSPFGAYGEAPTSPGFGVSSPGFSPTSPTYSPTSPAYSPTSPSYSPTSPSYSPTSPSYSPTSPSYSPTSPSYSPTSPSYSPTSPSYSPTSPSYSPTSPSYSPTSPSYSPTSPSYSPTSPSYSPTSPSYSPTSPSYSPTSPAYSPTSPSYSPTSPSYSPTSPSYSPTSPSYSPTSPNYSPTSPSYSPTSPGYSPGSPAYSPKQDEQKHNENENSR

The target in experiment [1] is T1, human NDF central portion (amino acids 101–226), His6-tagged truncation (human) (UniProt Q49A26).
T1 sequence: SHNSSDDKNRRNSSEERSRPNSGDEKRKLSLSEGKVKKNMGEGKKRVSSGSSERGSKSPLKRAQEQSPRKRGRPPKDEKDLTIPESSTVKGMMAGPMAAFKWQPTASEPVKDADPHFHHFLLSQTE
The experiment can be described thus: pull-down; 40 pmol His6-tagged NDF truncate or mutant captured on Ni-NTA beads with 20 pmol yeast or human Pol II in 300 μL; 10 mM Tris-HCl pH 7.5, 200 mM NaCl, 0.2% Nonidet P-40, 10% glycerol; 4 °C, 3 h; SDS-PAGE with Coomassie blue or silver staining (yeast Pol II) or Western blot (human Pol II); both purified.

Experiment [2] has as its target T2, human NDF N-terminal PWWP domain (amino acids 1–91), His6-tagged truncation (human) (UniProt Q49A26).
T2 sequence: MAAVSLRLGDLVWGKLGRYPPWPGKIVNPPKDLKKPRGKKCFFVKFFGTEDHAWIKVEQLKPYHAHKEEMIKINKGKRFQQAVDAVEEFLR
The experiment is described as above.

Take “S. cerevisiae RNA Polymerase II (Pol II) (from UniProt P04050 1-1733; P08518 1-1224; P16370 1-318; P20433 1-221; P20434 1-215; P20435 1-155; P34087 1-171; P20436 1-146; P27999 1-122; P22139 1-70; P38902 1-120; P40422 1-70) (complex)”: the binding entry in experiment [1] and in experiment [2] was “binds” in each case.

The values above are taken from paper PMC12112590.
